Source: US20100203114A1, “MICELLE ENCAPSULATION OF THERAPEUTIC AGENTS” (WARF - Wisconsin Alumni Research Foundation, priority 2007, published 2010)
The name of at least one read-out is uncertain. Some results were stated once for a whole list of compounds, not compound by compound.

Assay: Micelle drug loading and physical stability at various drug:polymer ratios (HPLC analysis)
Conditions: PEG-PLA 5K:6K micelles

| SMILES | solubilization of drug alone (single agent) | loading of each drug when both loaded together (paclitaxel and 17-AAG together) [mg/mL] |
| --- | --- | --- |
| C=CCNC1=C2C[C@@H](C)C[C@H](OC)[C@H](O)[C@@H](C)/C=C(\C)[C@H](OC(N)=O)[C@@H](OC)/C=C\C=C(/C)C(=O)NC(=CC1=O)C2=O [17-AAG, 17-allylamino-17-demethoxygeldanamycin] | about 5 mg/mL |  |
| CC(=O)O[C@H]1C(=O)[C@@]2(C)[C@H]([C@H](OC(=O)c3ccccc3)[C@]3(O)C[C@H](OC(=O)[C@H](O)[C@@H](NC(=O)c4ccccc4)c4ccccc4)C(C)=C1C3(C)C)[C@]1(OC(C)=O)CO[C@@H]1C[C@@H]2O [paclitaxel] |  | 4 to 5 |
